Results deposited as PubChem BioAssay AID1671195 (Yale University, 2021)

- Test: 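Genes whose knockdown alters LDL uptake in liver cancer cells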 (primary screen)
- Cell system: human Huh7 hepatoma cells
- Knock-down reagent: siRNA pool against human genes, 18 nM
- Duration: about 2 to 2.5 days of knockdown, then 8 h LDL uptake
- Challenge: DiI-labelled LDL at 30 µg/ml for 8 h, in lipoprotein-deficient serum medium
- Measured: 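Per-cell DiI-LDL intensity by automated imaging; well means scaled to the plate median and given as a robust z-score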
- Scale: robust z-score: higher = more LDL uptake after knockdown
- Call rule: 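a gene counts as active if at least two replicate z-scores exceed ±2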
The deposit covers about 22,000 reagents; shown is a random part of them. About 1,510 of them (6.9%) were called active. 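Active includes knockdowns raising or lowering LDL uptake; positive z-scores mean more uptake, negative mean less.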 Entries without a mark were called inactive. Reagents against one gene are numbered here.

| target | reagent no. | robust z-score, replicate 1 | robust z-score, replicate 2 | robust z-score, replicate 3 |
| --- | --- | --- | --- | --- |
| NFATC1 (GeneID 4772) | 1 | -0.049 | -0.0131 | -0.0924 |
| RNF44 (GeneID 22838) | 1 | -0.116 | -1.03 | -0.784 |
| RBKS (GeneID 64080) | 1 | 0.93 | 0.741 | 0.378 |
| RPSAP55 (GeneID 388122) | 1 | -0.501 | -0.5 | -0.408 |
| SAXO1 (GeneID 158297) | 1 | 1.49 (active) | 3.09 | 2.09 |
| SCGN (GeneID 10590) | 1 | -0.363 | -0.12 | -0.258 |
| LOC442432 (retired record) (GeneID 442432) | 1 | 1.16 | 1.29 | 1.41 |
| TFAP4 (GeneID 7023) | 1 | -0.654 | -0.917 | -0.183 |
| ZIK1 (GeneID 284307) | 1 | -0.595 | -0.994 | -1.11 |
| GMDS (GeneID 2762) | 1 | 1.41 | 1.36 | 1.33 |
| OR8S1 (GeneID 341568) | 1 | 2.14 (active) | 2.1 | 2.52 |
| LINC02593 (GeneID 100130417) | 1 | 0.211 | 0.418 | 0.451 |
| RPL5P34 (GeneID 388907) | 1 | 2.42 (active) | 2.07 | 3.19 |
| MAST2 (GeneID 23139) | 1 | -0.224 | 0.961 | 0.562 |
| SORCS2 (GeneID 57537) | 1 | -0.624 | -0.0753 | -0.658 |
| INCA1 (GeneID 388324) | 1 | -1.16 | -0.984 | -0.974 |
| INTS13 (GeneID 55726) | 1 | 0.339 | 0.178 | 0.417 |
| FBXO4 (GeneID 26272) | 1 | 0.657 | 0.844 | 0.834 |
| CTSW (GeneID 1521) | 1 | 0.0978 | -0.64 | -0.0672 |
| PWP2 (GeneID 5822) | 1 | -0.109 | 0.116 | 0.0312 |
| TMEM178A (GeneID 130733) | 1 | 1.61 (active) | 2.17 | 2.2 |
| NEUROD4 (GeneID 58158) | 1 | -1.74 | -1.71 | -0.553 |
| PSMD12 (GeneID 5718) | 1 | 0.721 | 0.618 | -0.372 |
| ZSCAN5A (GeneID 79149) | 1 | -0.927 | -0.912 | -0.777 |
| GAB2 (GeneID 9846) | 1 | 1.45 | 2.93 | 1.76 |
| TMPRSS12 (GeneID 283471) | 1 | 0.352 | 0.218 | 1.07 |
| JAKMIP1-DT (GeneID 285484) | 1 | -0.605 | -0.117 | -0.362 |
| PAQR3 (GeneID 152559) | 1 | -0.423 | -0.156 | -0.26 |
| SNAP29 (GeneID 9342) | 1 | 0.0988 | -1.27 | -0.946 |
| NT5C3B (GeneID 115024) | 1 | -1.18 | -1.55 | -1.63 |
| DEPDC5 (GeneID 9681) | 1 | 2.33 (active) | 2.1 | -0.214 |
| SCN7A (GeneID 6332) | 1 | 0.537 | 0.263 | 0.805 |
| BMP15 (GeneID 9210) | 1 | -1.67 | -0.832 | -1.44 |
| TAF6L (GeneID 10629) | 1 | -0.992 | -1.07 | -1.02 |
| DNAH12 (GeneID 201625) | 1 | -0.122 | 0.112 | -0.295 |
| DNAH12 (GeneID 201625) | 2 | -1.48 | -1.09 | -1.3 |

Next part, starting with the last 8 of the part before.
| target | reagent no. | robust z-score, replicate 1 | robust z-score, replicate 2 | robust z-score, replicate 3 |
| --- | --- | --- | --- | --- |
| SNAP29 (GeneID 9342) | 1 | 0.0988 | -1.27 | -0.946 |
| NT5C3B (GeneID 115024) | 1 | -1.18 | -1.55 | -1.63 |
| DEPDC5 (GeneID 9681) | 1 | 2.33 (active) | 2.1 | -0.214 |
| SCN7A (GeneID 6332) | 1 | 0.537 | 0.263 | 0.805 |
| BMP15 (GeneID 9210) | 1 | -1.67 | -0.832 | -1.44 |
| TAF6L (GeneID 10629) | 1 | -0.992 | -1.07 | -1.02 |
| DNAH12 (GeneID 201625) | 1 | -0.122 | 0.112 | -0.295 |
| DNAH12 (GeneID 201625) | 2 | -1.48 | -1.09 | -1.3 |
| PTGES3 (GeneID 10728) | 1 | -1.45 | -1.56 | -0.363 |
| PPARGC1B (GeneID 133522) | 1 | 0.154 | -0.118 | 0.237 |
| CD82 (GeneID 3732) | 1 | 1.62 (active) | 2.99 | 4.73 |
| ZDHHC21 (GeneID 340481) | 1 | 0.604 | 0.826 | 0.832 |
| PUF60 (GeneID 22827) | 1 | 0.316 | 0.147 | -0.36 |
| ELL3 (GeneID 80237) | 1 | 0.903 | 0.921 | 0.856 |
| LOC389189 (retired record) (GeneID 389189) | 1 | 3.23 (active) | 2.19 | 1.76 |
| LEMD1 (GeneID 93273) | 1 | -1.12 | -0.708 | -0.747 |
| SKA2 (GeneID 348235) | 1 | -1.11 | -1.02 | -0.805 |
| HUS1 (GeneID 3364) | 1 | -0.55 | 0.432 | -0.0859 |
| CYP39A1 (GeneID 51302) | 1 | 0.363 | 0.475 | 0.903 |
| FAM53C (GeneID 51307) | 1 | 0.166 | 0.803 | -0.209 |
| IKBKE-AS1 (GeneID 574431) | 1 | 1.42 | 1.44 | 1.08 |
| HGF (GeneID 3082) | 1 | 0.0333 | -0.317 | -0.372 |
| CILP (GeneID 8483) | 1 | -0.683 | -0.918 | -0.663 |
| WDR31 (GeneID 114987) | 1 | -0.478 | -1.91 | -0.206 |
| TPD52L2 (GeneID 7165) | 1 | -0.289 | 0.523 | 0.355 |
| NOB1 (GeneID 28987) | 1 | 0.987 | 1.28 | 0.979 |
| MYOD1 (GeneID 4654) | 1 | 0.199 | 0.585 | 0.848 |
| PAX7 (GeneID 5081) | 1 | 0.703 | 1.21 | 1.88 |
| NEIL1 (GeneID 79661) | 1 | 1.14 | 0.787 | 1.48 |
| THRAP3 (GeneID 9967) | 1 | -0.71 | 1.06 | -0.817 |
| LOC442386 (retired record) (GeneID 442386) | 1 | -0.553 | 0.436 | -0.197 |
| ACO2 (GeneID 50) | 1 | 1.14 | 0.843 | 1.19 |
| RSL1D1 (GeneID 26156) | 1 | -0.656 | 0.161 | 0.661 |
| CTLA4 (GeneID 1493) | 1 | -0.194 | -0.671 | -0.734 |
| PRELID3A (GeneID 10650) | 1 | 0.222 | -0.31 | 1.1 |
| EHD2 (GeneID 30846) | 1 | 1.07 | 3.62 | 0.375 |
| ZNF469 (GeneID 84627) | 1 | -0.32 | 0.651 | 0.0877 |
| HERC5 (GeneID 51191) | 1 | -0.106 | 0.42 | -0.811 |
| ENOSF1 (GeneID 55556) | 1 | -0.419 | -1.13 | -0.468 |
| BBOX1 (GeneID 8424) | 1 | -2.34 (active) | -2.16 | -2.12 |
